# Test results published in the supplement of paper PMC8728848.
# Some of the results follow.
# B1: LlpA (Burkholderia cenocepacia) (protein)
# chain: MGSSHHHHHHSSGLVPRGSHKILGSNETLSAGNVVYSDNGQYHLAMQTDGNLVVYGPTGAVWQSQTSGSGGNRAVMQGDGNLVIYRADNTAAWSSKTAHPGAFLAVQDDGNVVIYWPRPAWASNTSDPATQQSAESKYLASGSTMSAGQTVTVAQYMLVFQADGNLVLYKNGGNPIWSTGTQGKGATYAVMQSDGNFVIYAGSTALWSTKTNGANGAQLVLQSDGNLVIYAPTAAWSTKFGLVTAPTSTSTSNNGPGSGICVGVCPPHPLNGNPFSPVGVGTTGLGFPTPGYPGAAF
# Columns and labels:
# Experiment in all cases: glycan array binding signal (z-score within array); higher = stronger binding
# Conditions in all cases: glycan notation: IUPAC condensed, linker removed
# [1] = target: GlcNAc(b1-2)[GlcNAc(b1-4)]Man(a1-3)[GlcNAc(b1-4)][GlcNAc(b1-2)Man(a1-6)]Man(b1-4)GlcNAc(b1-4)GlcNAc
# How it was run: (§1)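 The binding signal is a Z-score computed within each array. Data were drawn from 3228 arrays in the Consortium for Functional Glycomics database, restricted to those with a known protein sequence. Scores were averaged over arrays of the same protein sequence at different concentrations or buffers, and over linkers, and negative values can be taken as non-binding.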
# [2] = target: GlcNAc(b1-2)[GlcNAc(b1-4)]Man(a1-3)[GlcNAc(b1-4)][GlcNAc(b1-2)[GlcNAc(b1-6)]Man(a1-6)]Man(b1-4)GlcNAc(b1-4)GlcNAc
# How it was run: as §1
# [3] = target: GlcNAc(b1-2)[GlcNAc(b1-4)]Man(a1-3)[GlcNAc(b1-4)][GlcNAc(b1-2)[GlcNAc(b1-6)]Man(a1-6)]Man(b1-4)GlcNAc(b1-4)[Fuc(a1-6)]GlcNAc
# How it was run: as §1
# [4] = target: GlcNAc(b1-2)[GlcNAc(b1-6)]Man(a1-6)[GlcNAc(b1-2)Man(a1-3)]Man(b1-4)GlcNAc(b1-4)GlcNAc
# How it was run: as §1
# [5] = target: GlcNAc(b1-2)[GlcNAc(b1-6)]Man(a1-6)[GlcNAc(b1-2)Man(a1-3)]Man(b1-4)GlcNAc(b1-4)[Fuc(a1-6)]GlcNAc
# How it was run: as §1
# [6] = target: GlcNAc(b1-2)[GlcNAc(b1-6)]Man(a1-6)[GlcNAc(b1-4)][GlcNAc(b1-2)Man(a1-3)]Man(b1-4)GlcNAc(b1-4)GlcNAc
# How it was run: as §1
# [7] = target: GlcNAc(b1-3)Fuc
# How it was run: as §1
# [8] = target: GlcNAc(b1-3)Gal
# How it was run: as §1
# [9] = target: GlcNAc(b1-3)Gal(b1-3)GalNAc
# How it was run: as §1
# [10] = target: GlcNAc(b1-3)Gal(b1-4)Glc
# How it was run: as §1
# [11] = target: GlcNAc(b1-3)Gal(b1-4)GlcNAc
# How it was run: as §1
# [12] = target: GlcNAc(b1-3)Gal(b1-4)GlcNAc(b1-2)Man(a1-3)[GlcNAc(b1-3)Gal(b1-4)GlcNAc(b1-2)Man(a1-6)]Man(b1-4)GlcNAc(b1-4)GlcNAc
# How it was run: as §1
# [13] = target: GlcNAc(b1-3)Gal(b1-4)GlcNAc(b1-2)Man(a1-3)[GlcNAc(b1-3)Gal(b1-4)GlcNAc(b1-2)Man(a1-6)]Man(b1-4)GlcNAc(b1-4)[Fuc(a1-6)]GlcNAc
# How it was run: as §1
# [14] = target: GlcNAc(b1-3)Gal(b1-4)GlcNAc(b1-2)[GlcNAc(b1-3)Gal(b1-4)GlcNAc(b1-6)]Man(a1-6)[GlcNAc(b1-3)Gal(b1-4)GlcNAc(b1-2)Man(a1-3)]Man(b1-4)GlcNAc(b1-4)GlcNAc
# How it was run: as §1
# [15] = target: GlcNAc(b1-3)Gal(b1-4)GlcNAc(b1-3)Gal(b1-4)GlcNAc
# How it was run: as §1
# [16] = target: GlcNAc(b1-3)Gal(b1-4)GlcNAc(b1-3)Gal(b1-4)GlcNAc(b1-2)Man(a1-3)[GlcNAc(b1-3)Gal(b1-4)GlcNAc(b1-3)Gal(b1-4)GlcNAc(b1-2)Man(a1-6)]Man(b1-4)GlcNAc(b1-4)GlcNAc
# How it was run: as §1
# [17] = target: GlcNAc(b1-3)Gal(b1-4)GlcNAc(b1-3)Gal(b1-4)GlcNAc(b1-2)Man(a1-3)[GlcNAc(b1-3)Gal(b1-4)GlcNAc(b1-3)Gal(b1-4)GlcNAc(b1-2)Man(a1-6)]Man(b1-4)GlcNAc(b1-4)[Fuc(a1-6)]GlcNAc
# How it was run: as §1
# [18] = target: GlcNAc(b1-3)Gal(b1-4)GlcNAc(b1-3)Gal(b1-4)GlcNAc(b1-2)[GlcNAc(b1-3)Gal(b1-4)GlcNAc(b1-3)Gal(b1-4)GlcNAc(b1-6)]Man(a1-6)[GlcNAc(b1-3)Gal(b1-4)GlcNAc(b1-3)Gal(b1-4)GlcNAc(b1-2)Man(a1-3)]Man(b1-4)GlcNAc(b1-4)[Fuc(a1-6)]GlcNAc
# How it was run: as §1
# [19] = target: GlcNAc(b1-3)Gal(b1-4)GlcNAc(b1-3)Gal(b1-4)GlcNAc(b1-3)Gal(b1-4)GlcNAc(b1-2)Man(a1-3)[GlcNAc(b1-3)Gal(b1-4)GlcNAc(b1-3)Gal(b1-4)GlcNAc(b1-3)Gal(b1-4)GlcNAc(b1-2)Man(a1-6)]Man(b1-4)GlcNAc(b1-4)GlcNAc
# How it was run: as §1
# [20] = target: GlcNAc(b1-3)Gal(b1-4)GlcNAc(b1-3)Gal(b1-4)GlcNAc(b1-3)Gal(b1-4)GlcNAc(b1-2)Man(a1-3)[GlcNAc(b1-3)Gal(b1-4)GlcNAc(b1-3)Gal(b1-4)GlcNAc(b1-3)Gal(b1-4)GlcNAc(b1-2)Man(a1-6)]Man(b1-4)GlcNAc(b1-4)[Fuc(a1-6)]GlcNAc
# How it was run: as §1
# [21] = target: GlcNAc(b1-3)Gal(b1-4)GlcNAc(b1-3)Gal(b1-4)GlcNAc(b1-3)Gal(b1-4)GlcNAc(b1-2)[GlcNAc(b1-3)Gal(b1-4)GlcNAc(b1-3)Gal(b1-4)GlcNAc(b1-3)Gal(b1-4)GlcNAc(b1-6)]Man(a1-6)[GlcNAc(b1-3)Gal(b1-4)GlcNAc(b1-3)Gal(b1-4)GlcNAc(b1-3)Gal(b1-4)GlcNAc(b1-2)Man(a1-3)]Man(b1-4)GlcNAc(b1-4)[Fuc(a1-6)]GlcNAc
# How it was run: as §1
# [22] = target: GlcNAc(b1-3)Gal(b1-4)GlcNAc(b1-3)Gal(b1-4)GlcNAc(b1-3)Gal(b1-4)GlcNAc(b1-3)Gal(b1-4)GlcNAc(b1-2)Man(a1-3)[GlcNAc(b1-3)Gal(b1-4)GlcNAc(b1-3)Gal(b1-4)GlcNAc(b1-3)Gal(b1-4)GlcNAc(b1-3)Gal(b1-4)GlcNAc(b1-2)Man(a1-6)]Man(b1-4)GlcNAc(b1-4)GlcNAc
# How it was run: as §1
# [23] = target: GlcNAc(b1-3)Gal(b1-4)GlcNAc(b1-3)Gal(b1-4)GlcNAc(b1-3)Gal(b1-4)GlcNAc(b1-3)Gal(b1-4)GlcNAc(b1-2)Man(a1-3)[GlcNAc(b1-3)Gal(b1-4)GlcNAc(b1-3)Gal(b1-4)GlcNAc(b1-3)Gal(b1-4)GlcNAc(b1-3)Gal(b1-4)GlcNAc(b1-2)Man(a1-6)]Man(b1-4)GlcNAc(b1-4)[Fuc(a1-6)]GlcNAc
# How it was run: as §1
# [24] = target: GlcNAc(b1-3)Gal(b1-4)GlcNAc(b1-3)Gal(b1-4)GlcNAc(b1-3)Gal(b1-4)GlcNAc(b1-3)Gal(b1-4)GlcNAc(b1-2)[GlcNAc(b1-3)Gal(b1-4)GlcNAc(b1-3)Gal(b1-4)GlcNAc(b1-3)Gal(b1-4)GlcNAc(b1-3)Gal(b1-4)GlcNAc(b1-6)]Man(a1-6)[GlcNAc(b1-3)Gal(b1-4)GlcNAc(b1-3)Gal(b1-4)GlcNAc(b1-3)Gal(b1-4)GlcNAc(b1-3)Gal(b1-4)GlcNAc(b1-2)Man(a1-3)]Man(b1-4)GlcNAc(b1-4)[Fuc(a1-6)]GlcNAc
# How it was run: as §1
# [25] = target: GlcNAc(b1-3)Gal(b1-4)GlcNAc(b1-3)Gal(b1-4)GlcNAc(b1-3)GalNAc
# How it was run: as §1
# [26] = target: GlcNAc(b1-3)Gal(b1-4)GlcNAc(b1-3)GalNAc
# How it was run: as §1
# [27] = target: GlcNAc(b1-3)Gal(b1-4)GlcNAc(b1-3)[GlcNAc(b1-3)Gal(b1-4)GlcNAc(b1-3)]GalNAc
# How it was run: as §1
# [28] = target: GlcNAc(b1-3)Gal(b1-4)GlcNAc(b1-6)[Gal(b1-3)]GalNAc
# How it was run: as §1
# [29] = target: GlcNAc(b1-3)Gal(b1-4)GlcNAc(b1-6)[GlcNAc(b1-3)Gal(b1-3)]GalNAc
# How it was run: as §1
# [30] = target: GlcNAc(b1-3)Gal(b1-4)GlcNAc(b1-6)[GlcNAc(b1-3)]Gal(b1-4)GlcNAc
# How it was run: as §1
# [31] = target: GlcNAc(b1-3)GalNAc
# How it was run: as §1
# [32] = target: GlcNAc(b1-3)Man
# How it was run: as §1
# [33] = target: GlcNAc(b1-3)[GlcNAc(b1-4)][GlcNAc(b1-6)]GlcNAc
# How it was run: as §1
# [34] = target: GlcNAc(b1-3)[GlcNAc(b1-6)]Gal(b1-4)GlcNAc
# How it was run: as §1
# [35] = target: GlcNAc(b1-3)[GlcNAc(b1-6)]GalNAc
# How it was run: as §1
# [36] = target: GlcNAc(b1-4)Gal(b1-4)GlcNAc
# How it was run: as §1
# [37] = target: GlcNAc(b1-4)GlcNAc
# How it was run: as §1
# [38] = target: GlcNAc(b1-4)GlcNAc(b1-4)GlcNAc
# How it was run: as §1
binder,measurement,setting,value
B1,glycan array binding signal (z-score),[1],0.096
same,glycan array binding signal (z-score),[2],-0.839
same,glycan array binding signal (z-score),[3],-0.499
same,glycan array binding signal (z-score),[4],-0.37
same,glycan array binding signal (z-score),[5],-1.16
same,glycan array binding signal (z-score),[6],0.298
same,glycan array binding signal (z-score),[7],0.48
same,glycan array binding signal (z-score),[8],-1.64
same,glycan array binding signal (z-score),[9],0.088
same,glycan array binding signal (z-score),[10],0.332
same,glycan array binding signal (z-score),[11],-0.175
same,glycan array binding signal (z-score),[12],-1.55
same,glycan array binding signal (z-score),[13],0.34
same,glycan array binding signal (z-score),[14],-0.511
same,glycan array binding signal (z-score),[15],0.538
same,glycan array binding signal (z-score),[16],0.803
same,glycan array binding signal (z-score),[17],1.5
same,glycan array binding signal (z-score),[18],1.97
same,glycan array binding signal (z-score),[19],-0.006
same,glycan array binding signal (z-score),[20],0.114
same,glycan array binding signal (z-score),[21],2.12
same,glycan array binding signal (z-score),[22],1.56
same,glycan array binding signal (z-score),[23],0.218
same,glycan array binding signal (z-score),[24],1.97
same,glycan array binding signal (z-score),[25],0.239
same,glycan array binding signal (z-score),[26],0.421
same,glycan array binding signal (z-score),[27],0.773
same,glycan array binding signal (z-score),[28],-0.276
same,glycan array binding signal (z-score),[29],0.128
same,glycan array binding signal (z-score),[30],0.744
same,glycan array binding signal (z-score),[31],-0.813
same,glycan array binding signal (z-score),[32],0.552
same,glycan array binding signal (z-score),[33],-0.705
same,glycan array binding signal (z-score),[34],0.383
same,glycan array binding signal (z-score),[35],0.522
same,glycan array binding signal (z-score),[36],-0.157
same,glycan array binding signal (z-score),[37],-0.529
same,glycan array binding signal (z-score),[38],-0.574

# Already shown: an excerpt of the list.
binder,measurement,setting,value
B1,glycan array binding signal (z-score),[16],0.803
same,glycan array binding signal (z-score),[17],1.5
same,glycan array binding signal (z-score),[18],1.97
